# In PubChem BioAssay AID1439 (NMMLSC, 2008):
# The chains behind the UniProt entries cited, without tags or fusion partners.
# UniProt P09471, whole entry, looked up: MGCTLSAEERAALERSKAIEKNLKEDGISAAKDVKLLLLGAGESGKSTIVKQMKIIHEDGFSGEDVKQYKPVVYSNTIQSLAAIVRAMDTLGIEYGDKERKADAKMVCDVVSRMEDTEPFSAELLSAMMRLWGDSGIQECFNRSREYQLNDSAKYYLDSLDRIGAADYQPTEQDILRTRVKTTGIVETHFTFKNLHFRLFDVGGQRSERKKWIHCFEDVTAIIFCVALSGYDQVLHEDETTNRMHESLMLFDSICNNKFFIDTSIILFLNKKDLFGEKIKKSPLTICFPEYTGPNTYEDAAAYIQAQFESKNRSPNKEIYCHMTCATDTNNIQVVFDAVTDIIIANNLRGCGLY
# The whole screen tested about 220,000 compounds, of which about 770 (0.35%) were called active. The inconclusive results got no clear call from the source; some entries with a clear call stand among them for comparison. Rule as the data show it: active = binding response below about 49% or above about 150%; inconclusive = no clear call, values can overlap the other calls; inactive = in between.
# Molecular target: Guanine nucleotide-binding protein G(o) subunit alpha (Homo sapiens) (UniProt P09471)
# Assay: RGS7-Galphao binding modulators, primary screen, biochemical, multiplexed bead flow cytometry (AID 1439);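 also: fluorescent Galphao held in activated GDP-AlF4 state binding bead-coupled RGS7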
# Conditions: at 10 µM, actives lie on both sides
row,Structure (SMILES),binding response (% of control)
1,O=C(CSc1ccccc1F)NC1CCS(=O)(=O)C1 (configuration not stated),inconclusive: 89%
2,Oc1ccccc1Nc1nc(NCc2ccco2)c2ccccc2n1,inconclusive: 131%
3,COc1ccc(Oc2cccc(Cl)c2CNC(=O)c2ccccc2C(=O)O)cc1,inconclusive: 106%
4,COc1ccccc1N1CC(C)(C)C(=O)N(C(=O)c2ccc(C)cc2)C1=S,inconclusive: 79.4%
5,Cn1c(=O)c2c(ncn2CC(=O)N/N=C/c2c[nH]c3ccccc23)n(C)c1=O,inconclusive: 99.6%
6,CCOc1ccccc1NC1=C(Cl)C(=O)N(c2ccccc2)C1=O,inactive: 103%
7,COc1ccccc1NS(=O)(=O)c1cc(NC(=O)c2cccs2)ccc1N1CCOCC1,inconclusive: 116%
8,COc1ccc(S(=O)(=O)N(C)c2ccc(C(=O)N3CCCCC3)cc2)cc1OC,inconclusive: 97.1%
9,N#CCC(=O)N1CCN(C=O)CC1,inactive: 101%
10,O=C(CCCN1C(=O)/C(=C/c2ccccc2Cl)SC1=S)NNC(=O)c1cccnc1,inconclusive: 78.2%
11,Cc1nnc(SCc2ccc(Cl)cc2)nc1/C=C/N(C)C,inconclusive: 113%
12,CCN1CC(CN(C)Cc2nc(Cc3ccccc3)no2)CC1=O (configuration not stated),inactive: 98.7%
13,CCN(CC)CCCNc1oc(-c2ccccc2[N+](=O)[O-])nc1C#N,inconclusive: 68.3%
14,O=C1Cc2cc(CCN3CCN(c4nsc5ccccc45)CC3)c(Cl)cc2N1,inactive: 102%
15,N#CC1=C(N)N=C(SCc2ccccc2)C(C(N)=O)C12CCCCC2 (configuration not stated),inactive: 107%
16,Cc1ccc(NC(=O)Cn2c(O)c(N=NC(N)=O)c3ccccc32)cc1,inconclusive: 111%
17,OCCC1CN(Cc2cccc(-n3cccn3)c2)CCN1Cc1ccccc1 (configuration not stated),inconclusive: 85.6%
18,FC(F)(F)c1nnc2ccc(N3CCCC3)nn12,inactive: 104%
19,O=C(CCC(=O)c1cccs1)NCc1cccnc1,inconclusive: 78.8%

row,Structure (SMILES),binding response (% of control)
1,CCC(=O)Oc1ccc2c(c1)OC1(OC(C)=O)OC(C)CC1=C2C (configuration not stated),inconclusive: 128%
2,O=[N+]([O-])c1ccc(C2=Nn3c(Cn4nnc5ccccc54)nnc3SC2)cc1,inconclusive: 116%
3,O=C1CCCCc2sc(Br)c([N+](=O)[O-])c2N1,inconclusive: 96.5%
4,CCOC(=O)c1c(C)[nH]c(C(=O)COC(=O)c2ccc(O)cc2)c1C,inconclusive: 77.2%
5,CC(=NCCCn1ccnc1)c1c(C)[nH]n(-c2ccc([N+](=O)[O-])cc2)c1=O,inactive: 102%
6,Cc1noc(C)c1C(=O)OCC(=O)Nc1cccc(S(N)(=O)=O)c1,inconclusive: 110%
7,C/C(=N\NC1=NCCN1)c1ccc(Cl)cc1,inconclusive: 117%
8,COC(=O)c1cccc(NC(=O)NC23CC4CC(CC(C4)C2)C3)c1,inactive: 102%
9,CC(=O)c1c(-c2ccc(C)cc2)nc2c3ccccc3ccn12,inconclusive: 109%
10,Nc1c(C(=O)NCc2cccs2)nnn1CC(=O)Nc1cccc(Cl)c1,inconclusive: 104%
11,CN1C(=O)CS/C1=N\NC(=O)COc1cccc2cccnc12,inactive: 97.1%
12,CC(=O)NS(=O)(=O)c1ccc(NC(=O)c2cc3c(=O)n4ccccc4nc3s2)cc1,inconclusive: 118%
13,Cc1ccc(C)n1-c1ccc(N2CCOCC2)c([N+](=O)[O-])c1,inconclusive: 34.4%
14,CC(=O)N(O)CCCCCNC(=O)CCC(=O)N(O)CCCCCNC(=O)CCC(=O)N(O)CCCCCN,inactive: 55.1%
15,COC(=O)[C@H](C)NC(=O)NCCC1=CCCCC1,inconclusive: 165%
16,Cc1ccc2nc(C)cc(C(=O)N3CCCC(CO)(Cc4ccccc4C)C3)c2c1 (configuration not stated),inactive: 106%
17,O=C(Cc1ccc(-n2c(=O)[nH]c3ccsc3c2=O)cc1)N1CCN(c2ccc(Cl)cc2)CC1,inactive: 102%
18,O=C(N/N=C/c1ccccc1)c1[nH]ncc1Br,inconclusive: 116%
19,Nc1ccc(S(=O)(=O)NC2=NCCCCC2)cc1N,inconclusive: 87.6%

row,Structure (SMILES),binding response (% of control)
1,COc1ccc(CCNC(=O)C(=O)Nc2ccc3nc4n(c(=O)c3c2)CCCCC4)cc1OC,inconclusive: 139%
2,COc1ccc(/C=N/NC(=O)c2ccccc2O)cc1COc1ccccn1,inconclusive: 78%
3,COc1ccc(CCN(C)c2ccc(C(N)=O)cc2[N+](=O)[O-])cc1OC,inconclusive: 91.2%
4,CC(=O)c1cccc(NC(=O)C(=O)c2cn(CC(=O)N3CCCCC3)c3ccccc23)c1,inactive: 99.3%
5,O=C(NCCCN1CCOCC1)C1CC(=O)N(C2CCCCC2)C1 (configuration not stated),inactive: 98.5%
6,CC(Oc1ccccc1)c1ccnc(N)n1 (configuration not stated),inactive: 103%
7,Nc1ncnc2c1cnn2C1CCCCC1,inconclusive: 57.4%
8,COc1ccc(C(CCN2CCCC(C)C2)c2c(OC)cc(OC)c3c(-c4ccccc4)cc(=O)oc23)cc1 (configuration not stated),inconclusive: 96.7%
9,CC(=O)/C(C#N)=C1\NC(=O)C(Cc2ccc(C)c(Cl)c2)S1 (configuration not stated),inconclusive: 127%
10,CN(C(=O)Cc1c(C(=O)O)n(C)c2ccccc12)c1ccc(F)cc1,inactive: 97.2%
11,CN1C(=O)S/C(=C/c2ccccc2OCc2ccc(C(=O)O)cc2)C1=O,inconclusive: 113%
12,O=C(Nc1ccc(F)cc1F)Nc1ccccc1C(=O)NCCN1CCNC1=O,inconclusive: 79%
13,COc1ccccc1NNC(=O)c1cc(C(C)(C)C)nn1Cc1ccccc1,inconclusive: 84.1%
14,O=c1[nH]c(CN2CCN(c3ccccc3O)CC2)nc2scc(-c3ccccc3Cl)c12,inconclusive: 25.2%
15,COCCn1c(=O)[nH]c(=O)c2c1nc(-c1cc(Br)c3c(c1)OCO3)n2Cc1ccccc1,inconclusive: 116%
16,Oc1ccc(-c2csc(Nc3ncccn3)n2)c(O)c1,inconclusive: 106%
17,CN(c1ccccc1)c1nc(N)c([N+](=O)[O-])c(NCc2ccccc2)n1,inconclusive: 98.7%
18,COc1ccc(/C=N/N2CCOCC2)cc1Cn1nc(C)c([N+](=O)[O-])c1C,inconclusive: 82.4%
19,CN(c1ccccc1)c1nc(N)c([N+](=O)[O-])c(N2CCCCCC2)n1,inconclusive: 86.1%

# A different layout for part of the listing above:
row	Structure (SMILES)	binding response (% of control)
6	CC(Oc1ccccc1)c1ccnc(N)n1 (configuration not stated)	inactive: 103%
7	Nc1ncnc2c1cnn2C1CCCCC1	inconclusive: 57.4%
8	COc1ccc(C(CCN2CCCC(C)C2)c2c(OC)cc(OC)c3c(-c4ccccc4)cc(=O)oc23)cc1 (configuration not stated)	inconclusive: 96.7%
9	CC(=O)/C(C#N)=C1\NC(=O)C(Cc2ccc(C)c(Cl)c2)S1 (configuration not stated)	inconclusive: 127%
10	CN(C(=O)Cc1c(C(=O)O)n(C)c2ccccc12)c1ccc(F)cc1	inactive: 97.2%
